Among the data in paper PMC11736009 are binding values, retold here.

The chains behind the UniProt entries cited, without tags or fusion partners. Where a name states a change or a piece, a line headed by the entry shows the natural chain unless it says otherwise.
UniProt Q9Z207: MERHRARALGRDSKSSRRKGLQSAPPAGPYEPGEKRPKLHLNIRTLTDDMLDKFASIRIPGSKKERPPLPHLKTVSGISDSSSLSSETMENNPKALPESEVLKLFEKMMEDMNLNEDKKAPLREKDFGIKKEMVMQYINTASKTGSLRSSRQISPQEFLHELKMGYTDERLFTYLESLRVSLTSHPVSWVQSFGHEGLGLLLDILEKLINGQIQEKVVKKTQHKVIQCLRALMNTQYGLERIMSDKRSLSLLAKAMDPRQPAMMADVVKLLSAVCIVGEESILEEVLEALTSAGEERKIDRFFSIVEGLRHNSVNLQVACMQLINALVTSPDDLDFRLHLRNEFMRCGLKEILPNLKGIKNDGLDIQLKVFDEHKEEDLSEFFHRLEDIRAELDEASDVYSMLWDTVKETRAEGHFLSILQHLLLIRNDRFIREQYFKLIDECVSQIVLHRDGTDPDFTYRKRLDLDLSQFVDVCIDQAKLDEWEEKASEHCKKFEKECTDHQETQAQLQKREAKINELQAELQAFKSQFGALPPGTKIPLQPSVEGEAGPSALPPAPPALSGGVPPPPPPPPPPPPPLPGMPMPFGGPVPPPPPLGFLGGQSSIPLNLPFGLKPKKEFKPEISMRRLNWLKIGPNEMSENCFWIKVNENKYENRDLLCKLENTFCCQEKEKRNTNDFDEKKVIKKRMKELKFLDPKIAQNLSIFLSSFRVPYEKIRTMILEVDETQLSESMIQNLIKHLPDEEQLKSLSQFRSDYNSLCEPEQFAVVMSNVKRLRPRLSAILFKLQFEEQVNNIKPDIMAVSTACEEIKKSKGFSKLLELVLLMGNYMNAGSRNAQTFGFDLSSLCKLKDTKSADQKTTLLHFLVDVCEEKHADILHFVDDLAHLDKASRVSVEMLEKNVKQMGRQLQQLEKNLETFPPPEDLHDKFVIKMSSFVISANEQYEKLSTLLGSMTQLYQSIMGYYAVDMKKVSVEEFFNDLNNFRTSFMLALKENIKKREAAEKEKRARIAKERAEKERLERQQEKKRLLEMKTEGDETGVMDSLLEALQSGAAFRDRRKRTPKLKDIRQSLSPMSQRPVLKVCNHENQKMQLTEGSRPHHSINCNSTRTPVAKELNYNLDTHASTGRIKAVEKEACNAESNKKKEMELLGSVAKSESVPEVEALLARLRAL
UniProt Q91W96: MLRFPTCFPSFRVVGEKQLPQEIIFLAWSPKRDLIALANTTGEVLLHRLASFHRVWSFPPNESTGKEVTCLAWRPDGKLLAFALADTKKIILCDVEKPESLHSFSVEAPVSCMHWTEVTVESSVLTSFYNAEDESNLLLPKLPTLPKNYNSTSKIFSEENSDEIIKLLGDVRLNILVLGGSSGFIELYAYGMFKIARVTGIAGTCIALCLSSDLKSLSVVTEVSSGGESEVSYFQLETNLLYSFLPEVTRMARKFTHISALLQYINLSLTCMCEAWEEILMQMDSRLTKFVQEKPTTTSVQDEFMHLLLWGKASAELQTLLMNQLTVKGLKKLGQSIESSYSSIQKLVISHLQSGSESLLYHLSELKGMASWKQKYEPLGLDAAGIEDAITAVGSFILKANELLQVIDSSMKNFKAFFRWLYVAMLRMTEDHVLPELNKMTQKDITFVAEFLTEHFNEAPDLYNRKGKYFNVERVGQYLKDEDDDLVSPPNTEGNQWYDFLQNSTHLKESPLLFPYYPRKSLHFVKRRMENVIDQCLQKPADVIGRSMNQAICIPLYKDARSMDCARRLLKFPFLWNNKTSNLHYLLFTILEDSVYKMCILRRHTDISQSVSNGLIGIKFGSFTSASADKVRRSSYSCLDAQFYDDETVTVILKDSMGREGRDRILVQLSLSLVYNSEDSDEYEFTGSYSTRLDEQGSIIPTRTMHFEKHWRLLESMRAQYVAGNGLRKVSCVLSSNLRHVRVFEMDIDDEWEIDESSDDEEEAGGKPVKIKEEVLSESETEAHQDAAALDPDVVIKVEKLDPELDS
UniProt Q9WUD1: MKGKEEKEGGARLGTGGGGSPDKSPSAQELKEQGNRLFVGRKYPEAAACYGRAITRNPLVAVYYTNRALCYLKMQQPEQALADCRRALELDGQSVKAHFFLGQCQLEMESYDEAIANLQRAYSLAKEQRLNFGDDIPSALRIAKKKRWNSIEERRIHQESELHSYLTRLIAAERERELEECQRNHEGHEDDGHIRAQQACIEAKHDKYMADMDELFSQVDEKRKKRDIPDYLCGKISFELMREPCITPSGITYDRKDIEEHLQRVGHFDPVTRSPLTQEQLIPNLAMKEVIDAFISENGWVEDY

No constants are given. Whether binding was seen depends on the method and setting. For some assays here: In cells and extracts the contact can be indirect. Some binding calls cover weakened binding; strength is not graded here.

Assay [1] has as its target full-length WT Diaph3-Flag (mouse) (UniProt Q9Z207). Put plainly: co-IP; HEK293T cells cotransfected, harvested 48 h later; lysate incubated with Flag beads at 4 °C overnight, washed 3 to 4 times with lysis buffer; Western blot. (Immunoblotting shows a protein as a band on a membrane.)
Assay [2] has as its target full-length Diaph3-M1041A-Flag (mouse) (UniProt Q9Z207). The description is as above.
The target of assay [3] is full-length WT Diaph3-Flag (mouse) (UniProt Q9Z207). Put plainly: native gel or EMSA; nondenaturing PAGE of lysates of transfected cells, without SDS and mercaptoethanol, at 0 to 4 °C; Western blot. In general terms: A gel shift assay detects complexes by their altered migration in electrophoresis.

For the substance “Anapc4 (overexpressed) (from UniProt Q91W96 1-807)”, the binding result in assay [1] and in assay [2] was “binds” in each case.

With “Stub1 (overexpressed) (from UniProt Q9WUD1 1-304) (enzyme)”, the binding entry in assay [1] and in assay [2] was “binds” each time. “full-length WT Diaph3-Flag (from UniProt Q9Z207 1-1171)”: the binding result in assay [3] is listed as “binds”.
